According to PubChem BioAssay AID2685 (National Center for Advancing Translational Sciences (NCATS), 2010):
The list shows a part of the results. Further columns of the screen follow, without active or inactive calls. Compounds called inactive in the main read-out are mostly missing here. The note in brackets gives the kind of curve behind each potency; many fits are weak.

Test: qHTS Assay for Lipid Storage Modulators in Drosophila S3 Cells;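 on cell number change: cells counted by Cell Tracker Red CMTPX staining in the red channel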
Conditions: BODIPY lipid droplet fluorescence, 18-24 h; for cell number change: measured here: cell count max response, cells fed with added oleic acid
Method in brief: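 Laser-scanning cytometry quantifies lipid droplet accumulation (500–530 nm total intensity; droplet/cell object ratio) in oleic acid-fed (400 uM added) Drosophila S3 cells treated with a concentration series. 20 uM Triacsin C defined 100% inhibition.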

[1] = measured here: cell number channel AC50, cells fed with added oleic acid
[2] = measured here: lipid fluorescence (Fed channel) AC50, cells fed with added oleic acid

Compound | cell number change | AC50 [1] | AC50 [2]
CC(C)c1nnc(NC(=O)c2cccc(NC(=O)C(F)(F)F)c2)s1 | 35.8% | 0.116 µM [rising, full curve, poor fit] | 
Cc1cccc(OCC(=O)NCc2nnc3ccc(C(F)(F)F)cn23)c1C | -14.4% |  | 0.0259 µM [rising, full curve, poor fit]
C/C(CC(=O)Nc1c(C)cc(C)cc1C)=N\NC(=O)c1cnccn1 | -18.6% |  | 
COc1cc(=O)[nH]c(SCC(=O)Nc2ccc3ccccc3c2)n1 | 14.1% |  | 
O=C(c1cc2ccccc2o1)N1CCN(S(=O)(=O)c2ccc(Cl)s2)CC1 | -42.3% | 32.6 µM [falling, single point] | 29.1 µM [falling, single point]
O=C(c1ccc(Cl)c(Cl)c1)N1CCC(=O)N(C(COCc2cccc(Cl)c2)Cc2ccccc2)CC1 (stereo unspecified) | 17.9% |  | 2.91 µM [rising, single point]
Cc1ccc(C)c(S(=O)(=O)N2CCN(C(=O)CSc3ccccc3F)CC2)c1 | -21.9% |  | 
CSc1ccc(/C=C2\C(=N)N3N=C(CC(=O)N4CCCCC4)SC3=NC2=O)cc1 | 7.26% |  | 
Cc1oc2cc3oc(=O)c(CCC(=O)NCCC(=O)O)c(C)c3cc2c1C | -5.56% |  | 
Cc1ccc(NC(=O)c2cc(-c3cccc(O)c3)on2)cc1C | -49.6% | 29.1 µM [falling, single point] | 20.6 µM [falling, single point]
Cc1ccnc(NC(=O)CNC(=O)c2ccccc2Br)c1 | -3.18% |  | 1.16 µM [rising, full curve, poor fit]
Cn1c(NCC(O)c2ccccc2)nc2c1c(=O)n(Cc1ccc(Cl)cc1)c(=O)n2C (stereo unspecified) | -50% | 16.4 µM [falling, single point] | 
CCCCC(C(=O)NC(C)(C)C)N(Cc1ccccc1)C(=O)c1snc(C(N)=O)c1N (stereo unspecified) | -23.2% |  | 
Cc1onc(-c2c(Cl)cccc2Cl)c1C(=O)Nn1cnnc1 | 8.21% |  | 7.31 µM [rising, full curve]
Cc1c(O)c(S(=O)(=O)c2ccccc2)c(=O)n(-c2ccccc2)c1-c1ccccc1 | 2.06% | 0.517 µM [falling, full curve, poor fit] | 
Cc1csc(SCC(=O)NCCc2ccc(Cl)cc2Cl)n1 | 18.5% |  | 
COc1ccc2c(c1)CC/C2=N\OC(=O)c1cccc(C)c1 | -36.8% | 0.231 µM [falling, full curve, poor fit] | 1.3 µM [falling, partial curve, poor fit]
C=CCn1nnnc1SCC(=O)Nc1ccc(OC)cc1 | -17.3% | 7.31 µM [falling, partial curve, poor fit] | 
Cn1c(SCC(=O)Nc2ccc3nc(SCC(=O)N4CCCC4)sc3c2)nnc1-c1ccc(N)cc1 | 60.2% | 11.6 µM [rising, partial curve] | 2.91 µM [rising, partial curve]
O=C(CSC1=NCCS1)Nc1cccc(F)c1 | -19.7% |  | 
COCCn1c(CN2CCN(c3cccc(Cl)c3)CC2)nc2c1c(=O)n(C)c(=O)n2C | -41.5% | 23.1 µM [falling, partial curve, poor fit] | 

Sorted by heavy-atom count (rising): part of the list above.
Compound | cell number change | AC50 [1] | AC50 [2]
O=C(CSC1=NCCS1)Nc1cccc(F)c1 | -19.7% |  | 
Cc1csc(SCC(=O)NCCc2ccc(Cl)cc2Cl)n1 | 18.5% |  | 
Cc1onc(-c2c(Cl)cccc2Cl)c1C(=O)Nn1cnnc1 | 8.21% |  | 7.31 µM [rising, full curve]
Cc1ccc(NC(=O)c2cc(-c3cccc(O)c3)on2)cc1C | -49.6% | 29.1 µM [falling, single point] | 20.6 µM [falling, single point]
CC(C)c1nnc(NC(=O)c2cccc(NC(=O)C(F)(F)F)c2)s1 | 35.8% | 0.116 µM [rising, full curve, poor fit] | 
C/C(CC(=O)Nc1c(C)cc(C)cc1C)=N\NC(=O)c1cnccn1 | -18.6% |  | 
O=C(c1cc2ccccc2o1)N1CCN(S(=O)(=O)c2ccc(Cl)s2)CC1 | -42.3% | 32.6 µM [falling, single point] | 29.1 µM [falling, single point]
Cc1oc2cc3oc(=O)c(CCC(=O)NCCC(=O)O)c(C)c3cc2c1C | -5.56% |  | 
Cc1ccc(C)c(S(=O)(=O)N2CCN(C(=O)CSc3ccccc3F)CC2)c1 | -21.9% |  | 
CSc1ccc(/C=C2\C(=N)N3N=C(CC(=O)N4CCCCC4)SC3=NC2=O)cc1 | 7.26% |  | 
Cc1c(O)c(S(=O)(=O)c2ccccc2)c(=O)n(-c2ccccc2)c1-c1ccccc1 | 2.06% | 0.517 µM [falling, full curve, poor fit] | 
CCCCC(C(=O)NC(C)(C)C)N(Cc1ccccc1)C(=O)c1snc(C(N)=O)c1N (stereo unspecified) | -23.2% |  | 
O=C(c1ccc(Cl)c(Cl)c1)N1CCC(=O)N(C(COCc2cccc(Cl)c2)Cc2ccccc2)CC1 (stereo unspecified) | 17.9% |  | 2.91 µM [rising, single point]

Additional results follow.

Compound | cell number change | AC50 [1] | AC50 [2]
Cc1nn(CCCC(=O)NCCc2ccccc2)c(=O)c2nccn12 | 9.22% |  | 18.4 µM [rising, partial curve, poor fit]
CC(C)(C)n1nc2c(c1NC(=O)c1ccc(Br)cc1)CS(=O)C2 (stereo unspecified) | 31.8% | 9.2 µM [rising, partial curve, poor fit] | 29.1 µM [rising, single point]
COC(=O)c1ccccc1NC(=O)C1CCC(=O)N1S(=O)(=O)c1ccc(C)cc1 (stereo unspecified) | -26.7% |  | 0.461 µM [falling, partial curve, poor fit]
OC(COCc1ccccc1)CN1CCN(c2ccccc2)CC1 (stereo unspecified) | 9.7% |  | 6.51 µM [falling, single point]
COc1ccc(N(CC(=O)NC2CCCC2)C(=O)c2ccc(N3CCCCC3)nc2)cc1 | 9.8% | 0.651 µM [rising, partial curve, poor fit] | 
COc1ccc(CCNC(=O)c2ccc3c(c2)N(Cc2ccc(F)cc2)CCS3)c(OC)c1 |  |  | 5.17 µM [rising, single point]
CN(c1ccccc1)S(=O)(=O)c1cccc(C(=O)NCc2ccccc2CN2CCCC2)c1 | -7.81% |  | 6.51 µM [falling, partial curve, poor fit]
O=C(O)c1cccc(Sc2ccc(Br)cc2C(=O)O)c1 | 1.08% |  | 7.31 µM [falling, single point]
COc1ccc2c3n([n+]([O-])c2c1)CCN=C3c1ccc(C)cc1 | -11.6% |  | 6.51 µM [rising, partial curve, poor fit]
COc1cccc(N=C2SC(C(=O)Nc3ccccc3F)CC(=O)N2C)c1 (stereo unspecified) | -8% |  | 
CC(C)CCn1cnc2c(c1=O)c1nc3ccccc3nc1n2Cc1ccc2c(c1)OCO2 | 11% |  | 2.59 µM [rising, full curve, poor fit]
COc1ccccc1-n1nnnc1SCC(=O)Nc1ccccn1 |  | 0.082 µM [rising, full curve, poor fit] | 
CCOC(=O)c1sc(NC(=O)CSc2ncn(-c3ccccc3)n2)nc1C |  |  | 1.16 µM [rising, full curve]
COc1ccc(CCC(=O)OCC(=O)Nc2ccc3[nH]c(=O)[nH]c3c2)cc1 | -6.4% |  | 
NNC(=O)C1CCCn2c1nc1sc3c(c1c2=O)CCCC3 (stereo unspecified) | 11.7% |  | 4.11 µM [rising, single point]
COc1ccc(OC)c(-c2[nH]nc3c2C(c2ccco2)C(C#N)=C(N)O3)c1 (stereo unspecified) | -0.938% |  | 0.651 µM [rising, partial curve]
CN(C)c1ccc(S(=O)(=O)NCC(=O)NCC2CCCCC2)cc1[N+](=O)[O-] | -18.1% |  | 
O=C1CC(N2CCN(c3ccccc3)CC2)C(=O)N1c1cccc(Br)c1 (stereo unspecified) | -9.94% |  | 0.291 µM [rising, partial curve, poor fit]
COc1ccc(OC)c(S(=O)(=O)N(C)CC(=O)Nc2ccc3c(c2)OCCO3)c1 | -13.7% |  | 9.2 µM [falling, partial curve, poor fit]
O=C(O)CNS(=O)(=O)c1ccc(-c2ccccc2)cc1 | 5.49% |  | 14.6 µM [falling, partial curve]
CC(C)c1ccc(C(=O)NNC(=O)c2n[nH]c(=O)c3ccccc23)cc1 | 7.29% |  | 0.231 µM [falling, full curve, poor fit]

Compound | cell number change | AC50 [1] | AC50 [2]
Cc1ccc(Cc2cnc(NC(=O)C3=NCCN3)s2)cc1 | -27.7% |  | 
COc1ccc(OC)c(NC(=O)Cc2csc(NC(=O)Nc3ccccc3OC)n2)c1 |  |  | 0.146 µM [rising, full curve, poor fit]
Cc1cc(N2C(=O)C(O)=C(C(=O)c3cc4ccccc4o3)C2c2ccc([N+](=O)[O-])cc2)no1 (stereo unspecified) | -0.236% |  | 
O=C(NC(=S)NCc1cccnc1)c1ccc([N+](=O)[O-])cc1 | -32.7% | 2.59 µM [falling, full curve] | 29.1 µM [falling, single point]
CSc1ccc(C2=CC(=O)C[C@H](c3ccc4c(c3)OCO4)C2)cc1 | -24.1% | 2.06 µM [falling, full curve, poor fit] | 6.51 µM [falling, single point]
CCN(C(=O)c1cc2c(=O)n3ccccc3nc2s1)C1CCCCC1 | -32.4% | 6.51 µM [falling, full curve, poor fit] | 
Clc1ccc(-n2cc(COCc3ccccc3)nn2)cc1 | -17.9% |  | 18.4 µM [falling, single point]
CN(C)c1ccc(/C=C/c2cc[n+]([O-])cc2)cc1 | 87.9% | 9.2 µM [rising, partial curve] | 32.6 µM [falling, single point]
COc1ccc(NC(=O)c2ccc(-c3ccc(OC)cc3)s2)cc1 | -57.9% |  | 
O=C(NC1(C(F)(F)F)N=C(c2ccccc2)NC1=O)c1ccccc1F (stereo unspecified) | -17.1% |  | 0.184 µM [rising, full curve, poor fit]
CC(C)(C)c1ccc(S(=O)(=O)Nc2cccc(C3OCCCO3)c2)cc1 | 5.91% |  | 0.259 µM [falling, full curve, poor fit]
O=C(O)c1cc(S(=O)(=O)N2CCCCC2)sc1Cl | -25.4% |  | 1.16 µM [falling, full curve, poor fit]
COc1ccccc1C1/C(=C(/O)c2ccc(OC(C)C)cc2)C(=O)C(=O)N1c1cc(C)on1 (stereo unspecified) | 8.93% |  | 
COc1ccc(/C=C(\C#N)C(=O)Nc2cccc(C)n2)cc1 | -6.85% |  | 0.291 µM [falling, full curve]
CCc1ccc(C2NC(c3ccc(CC)cc3)C([N+](=O)[O-])C(C)(C)C2[N+](=O)[O-])cc1 (stereo unspecified) | 3.07% |  | 0.517 µM [rising, full curve, poor fit]
O=C(O)c1cccnc1Nc1ccc(Cl)cc1 | 4.15% | 0.461 µM [rising, single point] | 
Cc1ccc(-c2cc(C(=O)Nc3c(C)n(C)n(-c4ccccc4)c3=O)no2)cc1 | 38.1% | 1.84 µM [rising, partial curve] | 
CC(=O)Cc1nsc(NC(=O)c2ccc(-c3ccc(Cl)c(Cl)c3)o2)n1 |  | 1.3 µM [rising, full curve] | 
COc1ccc(CN2CC(C(=O)NCCCN3CCN(C)CC3)CC2=O)cc1 (stereo unspecified) | -26.6% |  | 6.51 µM [rising, single point]
CCCCN(C(=O)c1cc2c(s1)CCCCC2)c1c(N)n(CC(C)C)c(=O)[nH]c1=O | -1.28% |  | 
